Literature values, collected in patent US6039950A, “Pharmaceutical grade saw palmetto” (priority 1997, dated 2000).
At least one read-out could not be matched to a standard name with certainty.

Test system: 5α-reductase and 17β-hydroxysteroid dehydrogenase (17β-HSD)
Conditions: cited from earlier work

In the case of C[C@]12CC[C@H]3[C@@H](CCC4=CC(=O)CC[C@@]43C)[C@@H]1CC[C@@H]2O [testosterone], the “testosterone converted to androstenedione” value (added testosterone, by 17β-HSD) is listed as 80% and the “testosterone converted to DHT” value (by 5α-reductase) is listed as 2-5%.
